Laboratory results as given in paper PMC8301362.
No constants are given. Whether binding was seen depends on the method and setting. Binding seen in cells or lysates may run through a third protein. These calls come from enrichment with a bait or labelling near it, and not all partners need be listed.

The chains behind the UniProt entries cited, without tags or fusion partners.
UniProt P49817: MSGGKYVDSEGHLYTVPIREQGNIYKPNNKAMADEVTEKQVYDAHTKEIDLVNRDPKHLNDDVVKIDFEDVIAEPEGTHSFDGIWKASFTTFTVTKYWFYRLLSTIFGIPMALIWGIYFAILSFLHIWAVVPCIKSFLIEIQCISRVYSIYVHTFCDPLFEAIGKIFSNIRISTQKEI

Biological target: T1, Myocilin (MYOC) (mouse (endogenous in C2C12)) (UniProt O70624)
T1 sequence: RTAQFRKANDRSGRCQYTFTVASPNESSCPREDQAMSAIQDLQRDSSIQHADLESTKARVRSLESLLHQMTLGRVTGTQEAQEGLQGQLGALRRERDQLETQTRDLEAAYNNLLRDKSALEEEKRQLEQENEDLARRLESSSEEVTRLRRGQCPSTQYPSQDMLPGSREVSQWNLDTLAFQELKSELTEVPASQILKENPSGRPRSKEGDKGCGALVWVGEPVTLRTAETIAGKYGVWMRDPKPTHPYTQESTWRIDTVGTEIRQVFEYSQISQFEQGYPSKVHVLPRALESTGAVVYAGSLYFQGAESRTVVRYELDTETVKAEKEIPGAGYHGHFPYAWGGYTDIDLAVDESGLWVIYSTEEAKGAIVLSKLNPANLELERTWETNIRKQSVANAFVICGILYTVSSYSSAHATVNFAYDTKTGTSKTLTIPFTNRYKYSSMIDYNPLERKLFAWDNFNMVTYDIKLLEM
Experiment: affinity purification with mass spectrometry; lysate (RIPA) of C2C12 cells on day 7 of differentiation; immunoprecipitation with anti-MYOC antibody overnight at 4 °C, protein A + G agarose beads; Coomassie-stained specific bands sequenced by mass spectrometry; rabbit IgG as control

binding: binds
Substance: Caveolin-1 (CAV1) (from UniProt P49817 1-178)
